Measurements reported in PubChem BioAssay AID1259405 (NCATS, 2018)
Assay: 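Silenced genes that increase secreted GFP made by CHO cells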 (primary screen). Cell system: Chinese hamster CHO-K1 ovary cells with stable secreted eGFP expression. Reagents: single siRNA against mouse genes, 0.8 pmol siRNA per well (2 µl of 400 nM stock). Time to read-out: 3 days. Measured: 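Percent of the per-plate non-targeting control median for intracellular GFP per well by laser scanning cytometry and for cell viability by ATP luminescence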. Reading the numbers: GFP, % of control: higher = more GFP per well, higher productivity; viability (ATP), % of control: higher = more viable cells (more ATP). Rule for the call: 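a knock-down is called active if GFP reaches 120% or more of non-targeting control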.
The whole screen tested about 50,000 reagents; below is a part drawn at random. About 4,000 of all reagents (8%) count as active. 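Mouse siRNA library applied to hamster cells; one well for each siRNA.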 The numbers tell different reagents against one gene apart.

gene symbol	reagent no.	GFP, % of control	viability (ATP), % of control	Outcome
Ocrl	1	78.3	67.4	inactive
Ocrl	2	59.9	45.5	inactive
Ocrl	3	88.3	94.3	inactive
Spatc1l	1	66.9	59.8	inactive
Spatc1l	2	21.4	19.3	inactive
Spatc1l	3	118	124	inactive
Pisd	1	71.7	59.3	inactive
Pisd	2	69.2	41.7	inactive
Pisd	3	72.6	89.3	inactive
Fscn3	1	75.5	74.2	inactive
Fscn3	2	81.7	75.5	inactive
Fscn3	3	103	69.4	inactive
Susd3	1	66.8	73.2	inactive
Susd3	2	77.3	72	inactive
Susd3	3	42.1	47.1	inactive
Or6c214	1	52.8	50.8	inactive
Or6c214	2	75.5	83.2	inactive
Or6c214	3	46.1	39.4	inactive
Rasgef1b	1	87.9	70	inactive
Rasgef1b	2	95.7	90.7	inactive
Rasgef1b	3	61.9	80.1	inactive
Prps1	1	100	67.4	inactive
Acsl5	1	71.5	70.3	inactive
Acsl5	2	101	98.9	inactive
Acsl5	3	82.2	95.1	inactive
Oog3	1	60.8	56.7	inactive
Oog3	2	42.2	52.1	inactive
Oog3	3	52.9	50.1	inactive
Slc35d1	1	73.5	110	inactive
Slc35d1	2	86	67.8	inactive
Slc35d1	3	60.4	61.9	inactive
Ap2m1	1	72.2	51.1	inactive
Ap2m1	2	106	108	inactive
Ap2m1	3	44.2	31.3	inactive
Or6c76	1	99.1	45.7	inactive
Or6c76	2	61.7	55.7	inactive
Or6c76	3	111	89.1	inactive
Cyp2d26	1	50.3	66.5	inactive
Cyp2d26	2	59.1	72.5	inactive
Cyp2d26	3	81.8	81.1	inactive
Gabpb2	1	49.2	66	inactive
Gabpb2	2	61.8	76.6	inactive
Gabpb2	3	67.8	88.5	inactive
Eed	1	90.8	91.7	inactive
Eed	2	90.8	67.2	inactive
Eed	3	141	74.4	active
Usp50	1	67.3	91.1	inactive
Usp50	2	72.6	70.2	inactive
Usp50	3	57.8	68	inactive
Trmu	1	85.9	100	inactive
Trmu	2	97.3	74.6	inactive
Trmu	3	136	83.6	active

Part of the list above, set out differently:
{"gene symbol": "Usp50", "reagent no.": 1, "GFP, % of control": 67.3, "viability (ATP), % of control": 91.1, "Outcome": "inactive"}
{"gene symbol": "Usp50", "reagent no.": 2, "GFP, % of control": 72.6, "viability (ATP), % of control": 70.2, "Outcome": "inactive"}
{"gene symbol": "Usp50", "reagent no.": 3, "GFP, % of control": 57.8, "viability (ATP), % of control": 68, "Outcome": "inactive"}
{"gene symbol": "Trmu", "reagent no.": 1, "GFP, % of control": 85.9, "viability (ATP), % of control": 100, "Outcome": "inactive"}

The listing continues:
gene symbol	reagent no.	GFP, % of control	viability (ATP), % of control	Outcome
Reg2	1	52.6	66.9	inactive
Reg2	2	0.859	2.91	inactive
Reg2	3	59.1	60.7	inactive
Dhrs4	1	125	96.7	active
Dhrs4	2	74.3	81.2	inactive
Dhrs4	3	59.9	59.9	inactive
Sap30bp	1	77.1	112	inactive
Sap30bp	2	84.1	81.7	inactive
Sap30bp	3	81.2	61.4	inactive
Ptprn2	1	52.9	57.9	inactive
Ptprn2	2	74.4	52.7	inactive
Ptprn2	3	85.7	72	inactive
Scg3	1	83.2	82.3	inactive
Scg3	2	73	46.7	inactive
Scg3	3	41.8	60.1	inactive
Pdzrn3	1	40.8	58.6	inactive
Pdzrn3	2	63.1	50.4	inactive
Pdzrn3	3	66.2	82	inactive
Neurl3	1	53.9	56.2	inactive
Neurl3	2	55.8	42	inactive
Neurl3	3	7.13	9.72	inactive
Lcn12	1	92	74	inactive
Lcn12	2	38.8	29.8	inactive
Lcn12	3	104	62.5	inactive
Usp19	1	81.3	71.3	inactive
Usp19	2	63.2	69.4	inactive
Usp19	3	98.9	85.5	inactive
Cabp2	1	95.5	102	inactive
Cabp2	2	55.8	59.9	inactive
Fbxo46	1	64.8	72.7	inactive
Fbxo46	2	116	81.1	inactive
Fbxo46	3	84.5	85.9	inactive
